These results are taken from patent publication US11420956B2, “Ureas having Androgen Receptor degradation activity and uses thereof” (ACCUTAR BIOTECHNOLOGY INC., priority 2019, dated 2022).

Amino acid sequences for entries named in this document (tags omitted).
UniProt P10275, whole entry: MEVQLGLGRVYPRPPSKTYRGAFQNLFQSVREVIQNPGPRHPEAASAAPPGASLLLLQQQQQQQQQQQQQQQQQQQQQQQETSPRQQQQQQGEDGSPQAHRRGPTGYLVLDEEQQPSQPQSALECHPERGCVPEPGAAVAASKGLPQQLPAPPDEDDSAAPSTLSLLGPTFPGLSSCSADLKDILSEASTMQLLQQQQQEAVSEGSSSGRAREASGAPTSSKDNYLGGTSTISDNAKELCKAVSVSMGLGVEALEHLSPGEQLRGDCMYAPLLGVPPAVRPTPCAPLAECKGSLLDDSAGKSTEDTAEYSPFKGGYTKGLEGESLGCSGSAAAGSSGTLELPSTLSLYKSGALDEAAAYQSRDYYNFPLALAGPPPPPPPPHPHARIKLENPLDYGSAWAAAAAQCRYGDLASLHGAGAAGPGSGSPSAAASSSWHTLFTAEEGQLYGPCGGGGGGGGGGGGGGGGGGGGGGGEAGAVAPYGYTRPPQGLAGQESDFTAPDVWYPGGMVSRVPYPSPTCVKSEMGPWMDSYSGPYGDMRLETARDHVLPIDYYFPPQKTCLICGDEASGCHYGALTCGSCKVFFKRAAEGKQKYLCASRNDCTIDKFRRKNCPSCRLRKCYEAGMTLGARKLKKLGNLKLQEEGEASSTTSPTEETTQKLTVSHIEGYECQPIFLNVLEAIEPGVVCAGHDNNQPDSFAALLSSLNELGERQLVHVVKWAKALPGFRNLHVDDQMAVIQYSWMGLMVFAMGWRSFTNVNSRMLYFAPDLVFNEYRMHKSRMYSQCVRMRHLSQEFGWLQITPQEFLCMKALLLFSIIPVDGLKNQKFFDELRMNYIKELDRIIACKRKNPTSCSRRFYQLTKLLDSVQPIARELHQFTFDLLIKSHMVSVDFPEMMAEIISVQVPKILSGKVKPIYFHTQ
UniProt P10275, whole entry T878A: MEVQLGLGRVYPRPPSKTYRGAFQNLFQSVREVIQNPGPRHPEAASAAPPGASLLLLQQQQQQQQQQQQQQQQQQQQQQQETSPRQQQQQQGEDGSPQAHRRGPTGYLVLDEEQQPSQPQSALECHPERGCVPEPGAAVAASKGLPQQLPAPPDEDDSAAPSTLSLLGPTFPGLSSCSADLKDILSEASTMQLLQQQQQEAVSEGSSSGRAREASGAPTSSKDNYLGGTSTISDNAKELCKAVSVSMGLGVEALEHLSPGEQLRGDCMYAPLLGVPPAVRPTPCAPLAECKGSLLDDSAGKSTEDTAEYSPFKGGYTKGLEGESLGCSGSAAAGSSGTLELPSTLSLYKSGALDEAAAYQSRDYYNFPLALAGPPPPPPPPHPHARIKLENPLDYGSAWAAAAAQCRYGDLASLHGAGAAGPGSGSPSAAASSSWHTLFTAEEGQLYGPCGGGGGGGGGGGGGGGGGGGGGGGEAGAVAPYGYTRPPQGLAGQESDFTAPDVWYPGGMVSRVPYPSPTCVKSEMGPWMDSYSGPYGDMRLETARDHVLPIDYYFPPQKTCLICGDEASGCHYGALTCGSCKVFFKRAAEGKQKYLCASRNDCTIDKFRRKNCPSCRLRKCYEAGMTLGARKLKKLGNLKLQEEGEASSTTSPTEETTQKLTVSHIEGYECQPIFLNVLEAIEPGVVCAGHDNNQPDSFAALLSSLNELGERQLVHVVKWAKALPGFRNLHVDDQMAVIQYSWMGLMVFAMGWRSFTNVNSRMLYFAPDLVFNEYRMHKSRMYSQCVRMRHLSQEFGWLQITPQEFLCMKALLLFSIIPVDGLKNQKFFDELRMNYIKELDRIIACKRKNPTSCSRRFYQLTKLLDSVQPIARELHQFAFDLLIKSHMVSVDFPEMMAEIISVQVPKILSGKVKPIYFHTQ

Assay [1] relates to androgen receptor (AR). Nature of the assay: AR degradation in 22Rv1 cells (Western blot). The conditions noted are these: read-out: 22RV1 (DC50), 24 hours after administration. The method, then:
(§1) LNCAP, VCAP and 22Rv1 cells were plated in 24-well plates at 1.5×10E5 cells/well in the RPMI growth medium containing 10% FBS and 1% Penicillin Streptomycin, and then incubated at 37° C. overnight. The following day, the test compound was administered to the cells by using 1000× compound stock solution prepared in DMSO at various concentrations. After administration of the compound, the cells were then incubated at 37° C. for 24 hours. Upon completion, the cells were washed with PBS and protein was collected in Laemmli sample buffer (1×; VWR International). Proteins in cell lysate were separated by SDS-PAGE and transferred to Odyssey nitrocellulose membranes (Licor) with iblot® dry blotting transfer system (ThermoFisher). Nonspecific binding was blocked by incubating membranes with Intercept Blocking Buffer (Licor) for 1 hour at room temperature with gentle shaking. The membranes were then incubated overnight at 4° C. with Primary antibodies rabbit anti-AR (1:1,000, Cell Signaling, 5153) and mouse anti-GAPDH (1:5,000, Santa Cruz Biotechnology, sc-47724) diluted in Intercept Blocking Buffer containing 0.1% Tween 20. After washing 3 times with TBS-T, the membranes were incubated with IRDye® […] goat anti-mouse IgG (1:20,000, Licor) or IRDye® […] goat anti-rabbit IgG (1:20,000, Licor) for 1 hour. […] The bands were quantified using Image Studio™ Software (Licor). […]

Assay [2] concerns the target androgen receptor (AR) (Homo sapiens, UniProt P10275, T878A). Nature of the assay: AR degradation in LNCAP cells (Western blot). The conditions noted are these: read-out: LNCAP (DC50), 24 hours after administration. As to the method: as §1
Assay [3] has as its target androgen receptor (AR) (Homo sapiens, UniProt P10275). Nature of the assay: AR degradation in VCAP cells (Western blot). The settings on record: read-out: VCAP (DC50), 24 hours after administration. As to the method:
as §1

The match of structure and compound is tentative.

Take `COc1cc(N2C[C@@H](C)N(C(=O)Nc3ccc(N4CCC(CN5CCN(c6ccc7c(c6)C(=O)N(C6CCC(=O)NC6=O)C7=O)CC5)CC4)c(F)c3)C[C@@H]2C)ccc1C#N` (some centres unmarked): the DC50 with androgen receptor (AR) [1], at androgen receptor (AR) [2] and at androgen receptor (AR) [3] was less than 10 nM each time.

Regarding `COc1cc(N2C[C@@H](C)N(C(=O)Nc3cnc(N4CCC(CCN5CCN(c6ccc7c(c6)C(=O)N(C6CCC(=O)NC6=O)C7=O)CC5)CC4)nc3)C[C@@H]2C)ccc1C#N` (some centres unmarked), the DC50 at androgen receptor (AR) [2] and at androgen receptor (AR) [3] was less than 10 nM throughout.
